Reference: the supplement of paper PMC7661543
± gives the standard deviation of the averaged measurements. Differences between knockout arms are mostly noise.

Test system: HCC-38
Test: relative cell number vs DMSO control (72 h) (% of DMSO); higher = less growth inhibition (more cells)
Description: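 QMAP-Seq: a pool of 5 breast cancer cell lines (ZR-75-1, SKBR3, HCC-38, MDA-MB-231, BT-20), each carrying 12 doxycycline-inducible Cas9 sgRNA perturbations (11 knockouts plus non-targeting sgNT), was treated with compounds for 72 h at four 10-fold doses (10 nM-10 uM or 1 nM-1 uM range). Barcodes were amplified and sequenced, and cell number was interpolated from 293T spike-in standard curves. The result is expressed as % of the median of DMSO wells. Two biological replicates.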

N[C@@H](CC(=O)N1CCn2c(nnc2C(F)(F)F)C1)Cc1cc(F)c(F)cc1F [Sitagliptin]
Details | relative cell number
sgRNA knockout: sgATF3, 10 nM | 100 ± 6.7
sgRNA knockout: sgATF3, 100 nM | 96.8 ± 17
sgRNA knockout: sgATF3, 1000 nM | 105 ± 5.7
sgRNA knockout: sgATF3, 10000 nM | 93.3 ± 4
sgRNA knockout: sgATF4, 10 nM | 106 ± 16
sgRNA knockout: sgATF4, 100 nM | 95.5 ± 11
sgRNA knockout: sgATF4, 1000 nM | 110 ± 5.3
sgRNA knockout: sgATF4, 10000 nM | 97.2 ± 6.2
sgRNA knockout: sgATF6, 10 nM | 107 ± 24
sgRNA knockout: sgATF6, 100 nM | 107 ± 17
sgRNA knockout: sgATF6, 1000 nM | 98.9 ± 3.5
sgRNA knockout: sgATF6, 10000 nM | 96.2 ± 5.8
sgRNA knockout: sgATG7, 10 nM | 106 ± 27
sgRNA knockout: sgATG7, 100 nM | 103 ± 4.9
sgRNA knockout: sgATG7, 1000 nM | 116 ± 1.8
sgRNA knockout: sgATG7, 10000 nM | 100.5 ± 1
sgRNA knockout: sgERN1, 10 nM | 104 ± 18
sgRNA knockout: sgERN1, 100 nM | 101 ± 6.2
sgRNA knockout: sgERN1, 1000 nM | 111 ± 5.8
sgRNA knockout: sgERN1, 10000 nM | 97.9 ± 8.4
sgRNA knockout: sgHSF1, 10 nM | 125 ± 0.51
sgRNA knockout: sgHSF1, 100 nM | 110 ± 9.9
sgRNA knockout: sgHSF1, 1000 nM | 88.8 ± 14
sgRNA knockout: sgHSF1, 10000 nM | 78.3 ± 24
sgRNA knockout: sgHSF2, 10 nM | 108 ± 4.9
sgRNA knockout: sgHSF2, 100 nM | 118.32 ± 0.0061
sgRNA knockout: sgHSF2, 1000 nM | 109 ± 2.1
sgRNA knockout: sgHSF2, 10000 nM | 99.9 ± 5
sgRNA knockout: sgKEAP1, 10 nM | 99.7 ± 5.8
sgRNA knockout: sgKEAP1, 100 nM | 118 ± 5.9
sgRNA knockout: sgKEAP1, 1000 nM | 103 ± 2.8
sgRNA knockout: sgKEAP1, 10000 nM | 81.7 ± 11
sgRNA knockout: sgNFE2L2, 10 nM | 96.3 ± 22
sgRNA knockout: sgNFE2L2, 100 nM | 97.9 ± 6.6
sgRNA knockout: sgNFE2L2, 1000 nM | 109 ± 4.9
sgRNA knockout: sgNFE2L2, 10000 nM | 92.2 ± 1.9
sgRNA knockout: sgSLC35F2, 10 nM | 101 ± 25
sgRNA knockout: sgSLC35F2, 100 nM | 102 ± 3
sgRNA knockout: sgSLC35F2, 1000 nM | 117 ± 11
sgRNA knockout: sgSLC35F2, 10000 nM | 92.5 ± 9
sgRNA knockout: sgXBP1, 10 nM | 104 ± 30
sgRNA knockout: sgXBP1, 100 nM | 97.2 ± 5.5
sgRNA knockout: sgXBP1, 1000 nM | 112 ± 4.5
sgRNA knockout: sgXBP1, 10000 nM | 101 ± 9

CNC(=O)c1cc(Oc2ccc(NC(=O)Nc3ccc(Cl)c(C(F)(F)F)c3)cc2)ccn1 [Sorafenib]
Details | relative cell number
sgRNA knockout: sgATF3, 10 nM | 101 ± 8.1
sgRNA knockout: sgATF3, 100 nM | 126 ± 49
sgRNA knockout: sgATF3, 1000 nM | 126 ± 15
sgRNA knockout: sgATF3, 10000 nM | 53.9 ± 4.5
sgRNA knockout: sgATF4, 10 nM | 100 ± 5.6
sgRNA knockout: sgATF4, 100 nM | 129 ± 57
sgRNA knockout: sgATF4, 1000 nM | 133 ± 42
sgRNA knockout: sgATF4, 10000 nM | 53.5 ± 3.7
sgRNA knockout: sgATF6, 10 nM | 100 ± 2.4
sgRNA knockout: sgATF6, 100 nM | 100 ± 11
sgRNA knockout: sgATF6, 1000 nM | 125 ± 33
sgRNA knockout: sgATF6, 10000 nM | 60.9 ± 11
sgRNA knockout: sgATG7, 10 nM | 98 ± 7
sgRNA knockout: sgATG7, 100 nM | 127 ± 44
sgRNA knockout: sgATG7, 1000 nM | 124 ± 11
sgRNA knockout: sgATG7, 10000 nM | 54 ± 1.2
sgRNA knockout: sgERN1, 10 nM | 98.4 ± 1
sgRNA knockout: sgERN1, 100 nM | 154 ± 68
sgRNA knockout: sgERN1, 1000 nM | 121 ± 23
sgRNA knockout: sgERN1, 10000 nM | 60.1 ± 2.8
sgRNA knockout: sgHSF1, 10 nM | 98.9 ± 13
sgRNA knockout: sgHSF1, 100 nM | 115.5 ± 0.11
sgRNA knockout: sgHSF1, 1000 nM | 108 ± 25
sgRNA knockout: sgHSF1, 10000 nM | 68.1 ± 4.4
sgRNA knockout: sgHSF2, 10 nM | 96.9 ± 10
sgRNA knockout: sgHSF2, 100 nM | 118 ± 10
sgRNA knockout: sgHSF2, 1000 nM | 121 ± 3.6
sgRNA knockout: sgHSF2, 10000 nM | 64.5 ± 7.5
sgRNA knockout: sgKEAP1, 10 nM | 97.5 ± 20
sgRNA knockout: sgKEAP1, 100 nM | 115.8 ± 1.1
sgRNA knockout: sgKEAP1, 1000 nM | 146 ± 15
sgRNA knockout: sgKEAP1, 10000 nM | 62.3 ± 15
sgRNA knockout: sgNFE2L2, 10 nM | 99.9 ± 0.15
sgRNA knockout: sgNFE2L2, 100 nM | 134 ± 73
sgRNA knockout: sgNFE2L2, 1000 nM | 127 ± 26
sgRNA knockout: sgNFE2L2, 10000 nM | 52.7 ± 8.4
sgRNA knockout: sgSLC35F2, 10 nM | 94 ± 5.7
sgRNA knockout: sgSLC35F2, 100 nM | 128 ± 42
sgRNA knockout: sgSLC35F2, 1000 nM | 126 ± 25
sgRNA knockout: sgSLC35F2, 10000 nM | 62 ± 3.8
sgRNA knockout: sgXBP1, 10 nM | 92.5 ± 1.2
sgRNA knockout: sgXBP1, 100 nM | 132 ± 44
sgRNA knockout: sgXBP1, 1000 nM | 133 ± 34
sgRNA knockout: sgXBP1, 10000 nM | 54 ± 11

Fc1ccc(CNc2ncnc3ccc(F)cc23)cc1 [Spautin1]
Details | relative cell number
sgRNA knockout: sgATF3, 10 nM | 99.647 ± 0.019
sgRNA knockout: sgATF3, 100 nM | 96.6 ± 5.3
sgRNA knockout: sgATF3, 1000 nM | 113 ± 5
sgRNA knockout: sgATF3, 10000 nM | 102.9 ± 0.87
sgRNA knockout: sgATF4, 10 nM | 103 ± 20
sgRNA knockout: sgATF4, 100 nM | 102 ± 1.7
sgRNA knockout: sgATF4, 1000 nM | 105 ± 11
sgRNA knockout: sgATF4, 10000 nM | 112 ± 4.1
sgRNA knockout: sgATF6, 10 nM | 108 ± 4.9
sgRNA knockout: sgATF6, 100 nM | 101.34 ± 0.096
sgRNA knockout: sgATF6, 1000 nM | 109 ± 25
sgRNA knockout: sgATF6, 10000 nM | 102 ± 21
sgRNA knockout: sgATG7, 10 nM | 95.7 ± 2.2
sgRNA knockout: sgATG7, 100 nM | 102 ± 2.5
sgRNA knockout: sgATG7, 1000 nM | 104 ± 10
sgRNA knockout: sgATG7, 10000 nM | 110 ± 9.7
sgRNA knockout: sgERN1, 10 nM | 98.39 ± 0.17
sgRNA knockout: sgERN1, 100 nM | 98.8 ± 8
sgRNA knockout: sgERN1, 1000 nM | 101 ± 4
sgRNA knockout: sgERN1, 10000 nM | 108 ± 8.2
sgRNA knockout: sgHSF1, 10 nM | 95.3 ± 3.4
sgRNA knockout: sgHSF1, 100 nM | 92.7 ± 15
sgRNA knockout: sgHSF1, 1000 nM | 94.2 ± 1.9
sgRNA knockout: sgHSF1, 10000 nM | 126 ± 27
sgRNA knockout: sgHSF2, 10 nM | 104 ± 13
sgRNA knockout: sgHSF2, 100 nM | 99.4 ± 7.9
sgRNA knockout: sgHSF2, 1000 nM | 104 ± 1.7
sgRNA knockout: sgHSF2, 10000 nM | 120 ± 12
sgRNA knockout: sgKEAP1, 10 nM | 88.4 ± 7.7
sgRNA knockout: sgKEAP1, 100 nM | 95.4 ± 29
sgRNA knockout: sgKEAP1, 1000 nM | 103 ± 25
sgRNA knockout: sgKEAP1, 10000 nM | 107 ± 7
sgRNA knockout: sgNFE2L2, 10 nM | 105 ± 12
sgRNA knockout: sgNFE2L2, 100 nM | 103 ± 15
sgRNA knockout: sgNFE2L2, 1000 nM | 102 ± 7.5
sgRNA knockout: sgNFE2L2, 10000 nM | 112 ± 16
sgRNA knockout: sgSLC35F2, 10 nM | 98.8 ± 11
sgRNA knockout: sgSLC35F2, 100 nM | 97.3 ± 7.6
sgRNA knockout: sgSLC35F2, 1000 nM | 103 ± 2.3
sgRNA knockout: sgSLC35F2, 10000 nM | 97.73 ± 0.15
sgRNA knockout: sgXBP1, 10 nM | 107 ± 10
sgRNA knockout: sgXBP1, 100 nM | 97.4 ± 10
sgRNA knockout: sgXBP1, 1000 nM | 101 ± 2.2
sgRNA knockout: sgXBP1, 10000 nM | 116 ± 6.9
